Laboratory results published in PubChem BioAssay AID504834 (National Center for Advancing Translational Sciences (NCATS), 2011).
Out of some 320,000 compounds screened, about 22,000 (6.9%) were called active. Inconclusive results, whose numbers are uncertain, are shown with a selection of clear calls. Calls follow the shape of the dose curve; as a rule, active = well fitted inhibition curve with a large enough effect; inconclusive = small, poorly fitted or top-dose-only effect, or another doubt; inactive = no such curve, though single readings can be large or run the other way. Potencies of inconclusive entries are doubtful fits and often do not repeat.

test: Primary qHTS for delayed death inhibitors of the malarial parasite plastid, 96 hour incubation; conditions: P. falciparum luciferase reporter growth; series mostly up to 28.7 µM
How it was run: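 Cell-based qHTS: luciferase-tagged P. falciparum in erythrocytes (2% hematocrit, 0.05% parasitemia final) incubated with compounds for 96 hours, 37 C, 5% CO2; luciferase detection reagent then added and luminescence measured.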
Potency is read from the fitted curve at half-maximal effect.

Row | SMILES | Potency
1 | O=C(NNC(=O)c1ccc2[nH]c(=O)c(=O)[nH]c2c1)c1cccc(Br)c1 | inactive
2 | CCCCCn1nc(C(=O)N(CC(C)C)c2c(N)n(CCCC)c(=O)[nH]c2=O)c2ccccc2c1=O | inconclusive: 8.28 µM [inhibitor, partial curve, poor fit]
3 | CCOC(=O)N1CCN(C(=O)c2cccn3c(=O)c4sccc4nc23)CC1 | active: 2.33 µM
4 | Cc1ccc(-c2nnc(C)c(N3CCOCC3)n2)cc1 | inconclusive: 18.5 µM [inhibitor, partial curve, poor fit]
5 | Cc1ccc[n+](CC(=O)c2cc3ccccc3oc2=O)c1 | inactive
6 | CN1CCc2c(sc3c2c(=O)n(-c2ccccc2)c2nncn32)C1 | inconclusive: 20.8 µM [inhibitor, single point]
7 | CC1(c2ccc3noc(-c4ccc(Cl)cc4)c3c2)OCCO1 | inconclusive: 2.62 µM [inhibitor, full curve]
8 | O=S(=O)(Nc1ccc2nc(C(F)(F)F)[nH]c2c1)c1ccccc1 | inactive
9 | O=C(Nc1ccc(Br)cc1)c1cnc[nH]1 | inconclusive: 18.5 µM [inhibitor, single point]
10 | Clc1ccccc1CNC1CN2CCC1CC2 (stereo not drawn) | inactive
11 | CN1CCN(C(c2cccc(Cl)c2)c2ccccc2Cl)CC1 (stereo not drawn) | inconclusive: 13.1 µM [inhibitor, single point]
12 | Cc1sc2nc(SCc3nc(-c4cccs4)no3)n(-c3ccccc3)c(=O)c2c1C | inconclusive: 3.7 µM [inhibitor, partial curve, poor fit]
13 | Cc1ccccc1CSc1nc(-c2ccccc2)cc(=O)[nH]1 | inconclusive: 16.5 µM [inhibitor, partial curve, poor fit]
14 | Cc1ccc(C)c(C2C(=O)c3ccccc3C2=O)c1 | inconclusive: 18.5 µM [inhibitor, single point]
15 | CC(=O)Nc1sc(C)c(C)c1C(=O)OCC(=O)NC(C)c1ccccc1 (stereo not drawn) | inconclusive: 18.5 µM [inhibitor, partial curve, poor fit]
16 | O=C(Nc1ccccc1)c1ccc(OC(=O)c2ccccc2)cc1 | inconclusive: 10.4 µM [inhibitor, single point]
17 | COCCN(C(=O)COC(=O)/C=C/c1ccc2ccccc2n1)c1c(N)n(Cc2ccccc2)c(=O)[nH]c1=O | inconclusive: 11.7 µM [inhibitor, partial curve]
18 | CCc1ccc(C2CC(=O)NC(SCC(=O)OC(C)C)=C2C#N)cc1 (stereo not drawn) | inconclusive: 20.8 µM [inhibitor, single point]
19 | COc1ccc(-c2ccc(=O)n(Cc3cccc(Cl)c3)n2)cc1 | inconclusive: 2.94 µM [inhibitor, partial curve]
20 | COc1ccc(CS(=O)(=O)CC(C)(O)c2ccccc2Cl)cc1 (stereo not drawn) | inactive
21 | COC(=O)c1c(C)oc2c1cc(NS(=O)(=O)c1cccs1)c1ccccc12 | inconclusive: 16.5 µM [inhibitor, partial curve, poor fit]
22 | CC1(C)Cc2ccccc2-c2nc3n(c(=O)c21)CCCS3 | inconclusive: 16.5 µM [inhibitor, single point]
23 | COc1ccc(C(CNC(=O)c2cccc(S(=O)(=O)Nc3cccc(C)c3)c2)N2CCOCC2)cc1 (stereo not drawn) | inconclusive: 10.4 µM [inhibitor, single point]

As entered above.
For Potency, CC1(c2ccc3noc(-c4ccc(Cl)cc4)c3c2)OCCO1 has inconclusive: 2.62 µM [inhibitor, full curve]
For Potency, CC(=O)Nc1sc(C)c(C)c1C(=O)OCC(=O)NC(C)c1ccccc1 (stereo not drawn) has inconclusive: 18.5 µM [inhibitor, partial curve, poor fit]
For Potency, Clc1ccccc1CNC1CN2CCC1CC2 (stereo not drawn) has inactive

Later entries:

Row | SMILES | Potency
24 | NC(=O)c1c(NC(=S)Nc2ccccc2)sc2c1CCCC2 | inactive
25 | Cc1cccc(C)c1Nc1nnc(SCC(=O)NCc2ccco2)s1 | active: 0.828 µM
26 | CCOc1ccc(N2CC(C(=O)Nc3nnc(Cc4ccc(OC)c(OC)c4)s3)CC2=O)cc1 (stereo not drawn) | inactive
27 | CCOc1ccc2oc(C(=O)Nc3ccc(N4CCOCC4)cc3)c(C)c2c1 | inconclusive: 1.65 µM [inhibitor, partial curve, poor fit]
28 | COc1ccc(-c2cc3c(=O)n(CC(=O)NC4CCN(Cc5ccccc5)CC4)ncn3n2)cc1 | inconclusive: 18.5 µM [inhibitor, single point]
29 | CCCS(=O)(=O)N1CCC(C(=O)Oc2ccc(OC)cc2)CC1 | inconclusive: 18.5 µM [inhibitor, single point]
30 | O=C(NCCc1ccccc1)C(c1cccs1)N(C(=O)c1csnn1)C1CC1 (stereo not drawn) | inconclusive: 8.28 µM [inhibitor, partial curve, poor fit]
31 | CC(=O)c1ccc(OCCCC(=O)Nc2cc(Cl)ccc2-n2cncn2)cc1 | inconclusive: 4.15 µM [inhibitor, single point]
32 | N=c1c(C(=O)NCCc2ccccc2)cc2c(=O)n3ccccc3nc2n1CCCN1CCOCC1 | inconclusive: 10.4 µM [inhibitor, partial curve, poor fit]
33 | COc1cc2[nH]c(=O)n(CCCCCC(=O)NCCc3c[nH]c4ccccc34)c(=O)c2cc1OC | inconclusive: 11.7 µM [inhibitor, partial curve, poor fit]
34 | O=C(CN1C(=O)COc2ccccc21)Nc1ccc(N2CCOCC2)cc1 | inconclusive: 18.5 µM [inhibitor, single point]
35 | O=C(COc1c(Cl)cc(Cl)cc1Cl)c1ccc(Cl)cc1 | active: 11.7 µM
36 | CCCCCCCNC(=O)C1(CC2CC(c3ccc(Cl)cc3)=NO2)CCN(C(=O)CCCCCBr)CC1 (stereo not drawn) | active: 11.7 µM
37 | Cc1cc(OCCCC(=O)N2CCCCC2)cc(C)c1Cl | inactive
38 | Cc1cc2oc(=O)sc2cc1NS(=O)(=O)c1cccc2cccnc12 | inconclusive: 18.5 µM [inhibitor, partial curve, poor fit]
39 | COc1cccc(NC(=O)NCCN2CCCCC2)c1 | inactive
40 | COC(=O)CN1C(=S)N(C)C(=O)C1CC(=O)Nc1ccccc1 (stereo not drawn) | inconclusive: 11.7 µM [inhibitor, single point]
41 | O=C(c1ccc(N2CCN(C(=O)c3ccccc3)CC2)cc1)c1cccc(F)c1 | inactive
42 | Cc1ccc(/C=C/C(=O)NCCc2ccccc2)o1 | inconclusive: 16.5 µM [inhibitor, partial curve, poor fit]
43 | CCCC(=O)NC(Nc1cccc(C(F)(F)F)c1)C(Cl)(Cl)Cl (stereo not drawn) | active: 1.85 µM
44 | CCc1nc2c(c(=O)[nH]1)C1(CCCC1)Cc1ccccc1-2 | inconclusive: 5.86 µM [inhibitor, partial curve, poor fit]
45 | COc1ccc(C(=O)Nc2ccccc2N2CCOCC2)cc1S(=O)(=O)N1CCCC1 | inconclusive: 2.08 µM [inhibitor, partial curve, poor fit]
46 | CC1CCN(S(=O)(=O)c2ccc3c(c2)oc(=O)n3CC(=O)NCc2ccc3c(c2)OCO3)CC1 | inconclusive: 18.5 µM [inhibitor, single point]

Another view of part of the listing above:

| Row | SMILES | Potency |
| --- | --- | --- |
| 6 | CN1CCc2c(sc3c2c(=O)n(-c2ccccc2)c2nncn32)C1 | inconclusive: 20.8 µM [inhibitor, single point] |
| 45 | COc1ccc(C(=O)Nc2ccccc2N2CCOCC2)cc1S(=O)(=O)N1CCCC1 | inconclusive: 2.08 µM [inhibitor, partial curve, poor fit] |

Continued.

Row | SMILES | Potency
47 | NC(=O)c1ccc(NC(=O)CN2CCN(c3ccccc3)CC2)cc1 | inconclusive: 10.4 µM [inhibitor, single point]
48 | CCN1CCSc2ccc(C(=O)NCc3ccccc3F)cc21 | inactive
49 | Cc1ccc(NC(=O)COC(=O)CCn2c(C)csc2=O)cc1S(=O)(=O)N1CCOCC1 | inconclusive: 18.5 µM [inhibitor, partial curve, poor fit]
50 | CCn1nc(C(=O)OCc2cccc(S(=O)(=O)N(C)C)c2)c2ccccc2c1=O | inactive
51 | CCOc1ccc(CN(C)CC(=O)NCc2ccccc2Cl)cc1 | inconclusive: 0.0586 µM [inhibitor, full curve, poor fit]
52 | Cc1ccc(CN2CCCCC2C(=O)Nc2ccc(Oc3cccnc3)cc2)o1 (stereo not drawn) | inconclusive: 10.4 µM [inhibitor, partial curve, poor fit]
53 | O=C(Cn1cc(C(F)(F)F)ccc1=O)N1CCN(S(=O)(=O)c2ccccc2)CC1 | inconclusive: 18.5 µM [inhibitor, single point]
54 | COc1ccc(Cc2noc(CN3CCC(c4ccncc4)CC3)n2)cc1OC | inconclusive: 11.7 µM [inhibitor, single point]
55 | CC(C)N(C(=O)c1ccc2nc(-c3ccccc3)c(-c3ccccc3)nc2c1)C(C)C | inconclusive: 18.5 µM [inhibitor, single point]
56 | CCc1ccc(-c2nc(CN3CCC(C(=O)NCCc4ccc(OC)c(OC)c4)CC3)c(C)o2)cc1 | inconclusive: 3.29 µM [inhibitor, partial curve, poor fit]
57 | Cc1c(Cl)cccc1NC(=O)CSc1nc2ncc(Cl)cc2[nH]1 | inactive
58 | O=C(c1ccc(CSCc2ccccc2F)o1)N1CCN(c2ccc(N3CCOCC3)nn2)CC1 | inconclusive: 11.7 µM [inhibitor, single point]
59 | CCn1c(SCc2nc3ccccc3[nH]2)nnc1-c1cnccn1 | inconclusive: 10.4 µM [inhibitor, single point]
60 | COc1ccc(-n2nc([N+](=O)[O-])c(=NCc3cccnc3)n2O)cc1 | inconclusive: 18.5 µM [inhibitor, single point]
61 | COc1ccc(NC(=O)Nc2nc3ccccc3s2)cc1 | inconclusive: 18.5 µM [inhibitor, single point]
62 | CN(C)CCCOC(=O)c1ccccc1 | inconclusive: 18.5 µM [inhibitor, single point]
63 | Cc1ccc(CNC(=O)COC(=O)CCOc2ccc(C)cc2)cc1 | inactive
64 | COc1ccc(NC(=O)C2CC(c3ccccc3Cl)=NO2)cc1 (stereo not drawn) | inactive
65 | O=C(NCc1ccccc1)c1ccco1 | inconclusive: 11.7 µM [inhibitor, single point]
66 | O=C(CN1CCN(S(=O)(=O)c2cccs2)CC1)N1CCCCC1 | inactive
67 | COC(=O)c1ccc(C(c2c(N)n(Cc3ccccc3)c(=O)n(C)c2=O)N2CCOCC2)cc1 (stereo not drawn) | inactive
68 | Cc1ccc(OCC(=O)Nc2ccc(N3CCN(S(C)(=O)=O)CC3)cc2)c(C)c1 | inconclusive: 11.7 µM [inhibitor, partial curve, poor fit]
